Article PMC3107199
No constants are given. Whether binding was seen depends on the method and setting. Binding seen in cells or lysates may run through a third protein. These calls come from enrichment with a bait or labelling near it, and not all partners need be listed. One block for each binder: values may come before it.

Biological target: GST-Pur α fusion protein (Drosophila melanogaster) (UniProt Q95RR6)
Assay: affinity purification with mass spectrometry; GST-Pur α (GST alone as control) on glutathione beads packed as a column; dialysed and cleared wild-type adult fly head extract (20 mM Hepes pH 7.2, 0.1 M NaCl) run through; washed, eluted with 0.2, 0.6 and 2 M NaCl buffers; SDS gel, LC-MS/MS; only the target purified

- binding: binds
B1: Sluggish A (protein, UniProt Q04499 31-681)
chain: VAACRSFHQRGSGSTSIAGEGAASESTRGVNGARFLHSGDRPLQASTLVQPEVVSSETVKRSMKQESSQEKNPSPAGSPQRDPLDVSFNDPIAAFKSKTTGELIRAYLVYMICSSEKLVEHNMTLMKLARNLLGQKLFVLLMKSSFYGHFVAGENRHTIVPALERLRSFGVKPILDYSVEEDITQEEAEKREVESSVSSAGDKKEEGSMPQYHVDKSFADRRYKVSSARTYFYLNEATCERNMEIFIKCLEAVSDDDRKAPRAVATGATFGTGITAIKLTALGRPQLLLQLSEVIMRTRKYMEDMVGGQGNVLTHHKTIKDLEKYYATLGDNKDVKEFLNNVTSDKEGILHLFPWSGIVDEDSQLSDTFRVPDPQTGQMRRLISQIPPKEEEMFRNMIRRLNTIVKAAADLDVRIMVDAEQTYFQPAISRITLEMMRKYNKDKAIVFNTYQCYLRETFREVNTDLEQAKRQNFYFGAKLVRGAYMDQERDRAKSLGYPDPVNPTFEATTDMYHRTLSECLRRIKLMKDCDDDARKIGIMVASHNEDTVRFAIQQMKEIGISPEDKVICFGQLLGMCDYITFPLGQAGYSAYKYIPYGPVEEVLPYLSRRAQENKGVLKKIKKEKRLLLSEIRRRLMRGQLFYKPKGNYVPI

- binding: binds
B2: Adaptin (protein, UniProt P91926 1-940)
chain: MAPVRGDGMRGLAVFISDIRNCKSKEAEVKRINKELANIRSKFKGDKTLDGYQKKKYVCKLLFIFLLGHDIDFGHMEAVNLLSSNKYSEKQIGYLFISVLVNTNSDLIRLIIQSIKNDLQSRNPVHVNLALQCIANIGSRDMAESFSNEIPKLLVSGDTMDVVKQSAALCLLRLFRSSPDIIPGGEWTSRIIHLLNDQHMGVVTAATSLIDALVKRNPDEYKGCVNLAVSRLSRIVTASYTDLQDYTYYFVPAPWLSVKLLRLLQNYNPVTEEAGVRARLNETLETILNKAQEPPKSKKVQHSNAKNAVLFEAINLIIHSDSEPNLLVRACNQLGQFLSNRETNLRYLALESMCHLATSEFSHEEVKKHQEVVILSMKMEKDVSVRQMAVDLLYAMCDRGNAEEIVQEMLNYLETADYSIREEMVLKVAILAEKYATDYTWYVDVILNLIRIAGDYVSEEVWYRVIQIVINREEVQGYAAKTVFEALQAPACHENMVKVGGYILGEFGNLIAGDSRSAPLVQFKLLHSKYHLCSPMTRALLLSTYIKFINLFPEIRTNIQDVFRQHSNLRSADAELQQRASEYLQLSIVASTDVLATVLEEMPSFPERESSILAVLKKKKPGRVPENEIRESKSPAPLTSAAQNNALVNNSHSKLNNSNANTDLLGLSTPPSNNIGSGSNSNSTLIDVLGDMYGSNSNNNSSAVYNTKKFLFKNNGVLFENEMLQIGVKSEFRQNLGRLGLFYGNKTQVPLTNFNPVLQWSAEDALKLNVQMKVVEPTLEAGAQIQQLLTAECIEDYADAPTIEISFRYNGTQQKFSIKLPLSVNKFFEPTEMNAESFFARWKNLSGEQQRSQKVFKAAQPLDLPGARNKLMGFGMQLLDQVDPNPDNMVCAGIIHTQSQQVGCLMRLEPNKQAQMFRLTVRASKETVTREICDLLTDQF

- binding: binds
B3: Retinal degeneration A (protein, UniProt Q09103 1-1457)
chain: MQQQQQPSIDQLPEPTASTSNSATTKPTIATATTSTTTTSGNNFHQQLQATTAATMQRLRTTFTRSRTPTGAEMKMQNSLEVPKQVRSASFDEMQLESQRASSSLLKQQSSSSASADERSSEAGFLQVPLAAHQQRSHSFDSATASAGSDDSGTFLEVPRRLKARRSSSTKTPPPCIHCHYLEEYERRMTAEQRYFIDHRELTALSYSNTSSEASEDEDEVEGHNAEEEEEGSAAIEDAEEETTEAATEEADEDPRTEVESEHDHDPDDDAALEMDIRIGNMSQGSSIEESRARLPRQMRRHTIGSSSVTSASEDEGLEGSDNGSPHFGNTLLPPQPTTPCGITFTLSPTNGDYPSPPHLPLDPGSPPISPCSSNSGRLPALAPIISTPCSSADADDAGAAMGLPVRARRRSISRQEAIFVEPTGNSLENVSHEEVDNSNTKSSVDTADSLDEASTMATCGSPGAAGGSGASSSHHNAFVVRDIYLMVPDLKRDRAASVDSCFSKLSSNAKTEELQPSADGCFLTVPNINATRSRSVDIVLPTDEQARYKALSMTGSTVTYADGRTASASNSRRPIRIVPDWTENAVQGEHYWKPTSASGDLCCLNEECIKSGQRMKCSACQLVAHHNCIPFVNEKSTLACKPTYRDVGIRQYREQTTTHHHWVHRKLEKGKCKQCGKFFPMKQAVQSKLFGSKEIVALACAWCHEIYHNKEACFNQAKIGEECRLGNYAPIIVPPSWIVKLPTKGNFKSSIRVSNKNNAASGSGGGGAGGGAGGGGGKSKKQTQRRQKGKEEKKEPRAFIVKPIPSPEVIPVIVFINPKSGGNQGHKLLGKFQHLLNPRQVFDLTQGGPKMGLDMFRKAPNLRVLACGGDGTVGWVLSVLDQIQPPLQPAPAVGVLPLGTGNDLARALGWGGGYTDEPIGKILREIGMSQCVLMDRWRVKVTPNDDVTDDHVDRSKPNVPLNVINNYFSFGVDAHIALEFHEAREAHPERFNSRLRNKMYYGQMGGKDLILRQYRNLSQWVTLECDGQDFTGKLRDAGCHAVLFLNIPSYGGGTHPWNDSFGASKPSIDDGLMEVVGLTTYQLPMLQAGMHGTCICQCRKARIITKRTIPMQVDGEACRVKPSVIEIELLNKALMLSKRKHGRGDVQVNPLEKMQLHILRVTMQQYEQYHYDKEMLRKLANKLGQIEIESQCDLEHVRNMLNTKFEESISYPKVSQDWCFIDSCTAEHYFRIDRAQEHLHYICDIAIDELYILDHEAATMPQTPDQERSFAAFSQRQAQNERRQMDQAQGRGPGSTDEDLQIGSKPIKVMKWKSPILEQTSDAILLAAQSGDLNMLRALHEQGYSLQSVNKNGQTALHFACKYNHRDIVKYIIASATRRLINMADKELGQTALHIAAEQNRRDICVMLVAAGAHLDTLDSGGNTPMMVAFNKNANEIATYLESKQGTQPVDGWLDD

- binding: binds
B4: Glutathione S transferase S1 (protein, UniProt P41043 1-249)
chain: MADEAQAPPAEGAPPAEGEAPPPAEGAEGAVEGGEAAPPAEPAEPIKHSYTLFYFNVKALAEPLRYLFAYGNQEYEDVRVTRDEWPALKPTMPMGQMPVLEVDGKRVHQSISMARFLAKTVGLCGATPWEDLQIDIVVDTINDFRLKIAVVSYEPEDEIKEKKLVTLNAEVIPFYLEKLEQTVKDNDGHLALGKLTWADVYFAGITDYMNYMVKRDLLEPYPALRGVVDAVNALEPIKAWIEKRPVTEV

- binding: binds
B5: endogenous Pur α (protein, UniProt Q95RR6 1-274)
chain: MSDLGSGDDGISGSKYNVANMEGSSSRNDFDSSAKGGSGVEQELATKMLQIQSKRFYLDVKQNRRGRFIKVAEIGADGRRSQIYLALSTAAEFRDHLSSFSDYYASLGPPNTDNLPEDGKLKSEMMIKDYRRYYLDLKENARGRFLRVSQTITRGGPRSQIALPAQGMIEFRDALTDLLEEFGANDGGFKGDLPEERHMKVDNKNFYFDIGQNNRGVYMRISEVKNNFRTSITIPEKCWIRFRDIFNDYCEKMKKSSDSITAEINLPTSSNSLK

- binding: binds
B6: Paramyosin (protein, UniProt P35415 1-879)
chain: MSSSQAVRSSKYSYRATSTGPGTADVNIEYIQDLSSLSRLEDKIRLLQDDLEVERELRQRIEREKADLSVQVIQMSERLEEAEGGAEHQFEANRKRDAELLKLRKLLEDVHLESEETTLLLKKKHNEIITDFQEQVEILTKNKARAEKDKAKFQTEVYELLSQIESYNKEKIVSEKHISKLEVSISELNVKIEELNRTVIDISSHRSRLSQENIELTKDVQDLKVQLDTVSFSKSQVISQLEDARRRLEDEDRRRSLLESSLHQVEIELDSVRNQLEEESEARIDLERQLVKANADATSWQNKWNSEVAARAEEVEEIRRKYQVRITELEEHIESLIVKVNNLEKMKTRLASEVEVLIIDLEKSNNSCRELTKSVNTLEKHNVELKSRLDETIILYETSQRDLKNKHADLVRTVHELDKVKDNNNQLTRENKKLGDDLHEAKGAINELNRRLHELELELRRLENERDELTAAYKEAEAGRKAEEQRGQRLAADFNQYRHDAERRLAEKDEEIEAIRKQTSIEIEQLNARVIEAETRLKTEVTRIKKKLQIQITELEMSLDVANKTNIDLQKVIKKQSLQLTELQAHYEDVQRQLQATLDQYAVAQRRLAGLNGELEEVRSHLDSANRAKRTVELQYEEAASRINELTTANVSLVSIKSKLEQELSVVASDYEEVSKELRISDERYQKVQVELKHVVEQVHEEQERIVKLETIKKSLEVEVKNLSIRLEEVELNAVAGSKRIISKLEARIRDLELELEEEKRRHAETIKILRKKERTVKEVLVQCEEDQKNLILLQDALDKSTAKINIYRRQLSEQEGVSQQTTTRVRRFQRELEAAEDRADTAESSLNIIRAKHRTFVTTSTVPGSQVYIQETTRTITE

- binding: binds
B7: Stoned A (protein, UniProt Q24211 1-850)
chain: MLKLPKGLKKKKKKSKKDQELFTEEELEQYKRDLKAKQEAAATKSDAGESDGASSDVEAHHEPVAFNSGLGSGSSSSILNAQQQLSDQNQGAAGGDEEWAKFKALTSGVDSILHKTQDELDRIKKESFYQRLPSAAEKKKQKEEEAARLEAEQQEREKQRLGQIEAQRDKLAEAVVQLSESEEEAGDYEADDIFATDYIEAITSGELQLAVVPDSPVLAEDGPDPFDTAYAEKVIVGADRAKGNKKLVSLGAAVEVLSGRVDREHAVALANPKRKLRKGIQNLLLSESIELADSEAELLAATSNAEPQHNLLDDLDEELSESSVPIDLSVSLHLHLIKHKQPVEEEEELEQKGRENQLLNPDLSEFDSLKDEEDDEFAELAAESLTKKEEVTVVSQVVLPVAQLPTEAFEAGSWAEFEEQSGQEPGKPKRPPPPVRPPTGPHIVPGAIYVSEDEEENPEDDPFNTNYAEQVIKKTTVLEEDDDFDPRAEEHATEPPFLAAPQRDLLAGSATDLSQVVPAPLAPTLSVDQEAEDFDPFDTSAVSALVQPKSTELRFLERELLNYSGLDGVTLKHSLSDQDFDPRADQKEPAAPQVKLEQKETDFDTAQRKSSLSLNIQAKSVGFLVPASDLLGAGNELGASKKPLTPYYAPSDNRLQEREREAEDVDPFDTSHVPEAKLSDIELKHIEKDLISVPANLRHSLSDPDFDPRAPPTPVPAEVLLAVEENINIKVLTPAQDRKKLTNSGGSGKSEEDIDPFDTSIAANLQPGQTELKLLENELLPETKTLVTDVLDVQSDAQELGLGDKVLTPSTHSRPSLPAQDIDPFDTSIAENLAPGEAEIKLLESELIER
